PubChem BioAssay AID686938 – Drosophila RNAi Screening Center – 2013
Test: 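Knock-downs reducing store-operated calcium influx in Drosophila cells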 (primary screen). System: Drosophila S2R+ cells. Knock-down reagent: long dsRNA against Drosophila genes, about 0.25 µg dsRNA per well, roughly 10,000 cells. Duration: 5 days of knock-down before the calcium assay. Conditions: thapsigargin (SERCA pump blocker) to empty calcium stores; entry signal taken 4 min after adding it. Read-out: 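Duplicate raw fluo-4 intensities per well from a plate reader, at rest and four minutes after thapsigargin emptied calcium stores; entry-to-rest ratio filled for only some wells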. Reading the numbers: calcium entry signal: higher = stronger calcium signal after store depletion; entry to resting ratio: higher = more calcium entry relative to resting level; resting calcium signal: higher = higher resting calcium signal. Active means: 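Hit if the duplicate-averaged plate z-score for entry over resting signal is under −3; wells with weak total dye signal (Fmax z < −2) or more than 5 off-targets removed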. Meaning of the calls: active = strongly reduced calcium entry; inactive = no strong reduction.
In all, the deposit lists about 23,000 reagents; this is an unselected part of those with a known target gene and a result. Of all reagents, 75 (0.33%) are marked active. 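Raw plate signals without normalisation; calls rest on plate z-scores that were not deposited; ratio present for only 364 wells.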 A plus sign joins genes that one reagent is predicted to hit. The record does not give: the dose of the treatment.

Target gene	DRSC id	calcium entry signal, replicate 1 (fluorescence units)	calcium entry signal, replicate 2 (fluorescence units)	entry to resting ratio	resting calcium signal, replicate 1 (fluorescence units)	resting calcium signal, replicate 2 (fluorescence units)	call
AlaRS	DRSC01851	3.64e7			1.81e7		inactive
Obp57c + Obp57b	DRSC21914	2.94e7	2.75e7		1.81e7	1.50e7	inactive
l(2)03659	DRSC07269	4.09e7	4.39e7		1.90e7	1.88e7	inactive
l(2)03659	DRSC07638	3.95e7	5.09e7		1.77e7	2.08e7	inactive
Vamp7	DRSC06599	3.49e7	3.61e7		1.85e7	1.43e7	inactive
Osi23	DRSC15074	3.19e7	4.92e7		1.70e7	1.96e7	inactive
CG7988	DRSC16358	4.31e7	4.08e7		5.71e7	1.77e7	inactive
Gba1a	DRSC21494	2.97e7	3.48e7		1.60e7	1.66e7	inactive
CG13022	DRSC09902	3.20e7	5.91e7		1.65e7	2.51e7	inactive
zfh2	DRSC17178	2.85e7	3.09e7		1.61e7	1.60e7	inactive
stmA	DRSC05120	1.62e7	2.65e7		9.22e6	1.21e7	inactive
stmA	DRSC07593	6.09e7	4.31e7		2.34e7	1.90e7	inactive
stmA	DRSC22179	2.70e7	2.89e7		1.33e7	1.51e7	inactive
CG9119	DRSC08620	2.63e7	2.06e7		1.16e7	1.10e7	inactive
CG4953	DRSC02792	4.13e7			2.04e7		inactive
Usp15-31	DRSC04426	4.64e7			2.29e7		inactive
Usp15-31	DRSC04532	3.81e7	4.28e7		2.03e7	2.24e7	inactive
CG10734	DRSC05998	4.50e7	4.02e7		2.08e7	1.93e7	inactive
CG44433	DRSC06517	5.22e7	5.58e7		2.20e7	2.65e7	inactive
CG44433	DRSC06518	5.87e7	6.60e7		2.31e7	2.91e7	inactive
GluProRS	DRSC14095	2.25e7	1.96e7		1.23e7	1.09e7	inactive
E(spl)m8-HLH	DRSC16654	3.13e7	4.73e7		1.73e7	2.01e7	inactive
IFT46	DRSC02462	2.77e7	4.54e7		1.53e7	1.95e7	inactive
CG3793	DRSC01982	5.07e7			2.62e7		inactive
Irk3	DRSC02047	6.41e7	2.93e7		2.90e7	1.23e7	inactive
Ube4A	DRSC02004	4.40e7			2.60e7		inactive
Top2	DRSC03459	3.25e7	3.88e7		1.97e7	2.13e7	inactive
Gabat	DRSC10846	3.49e7	5.42e7		1.70e7	2.16e7	inactive
Adk3	DRSC05917	3.67e7			1.96e7		inactive
MFS3	DRSC00664	2.99e7	3.13e7		1.51e7	1.49e7	inactive
CG7806	DRSC03071	5.12e7			2.57e7		inactive
CG9084	DRSC07335	1.64e7	2.85e7		1.00e7	1.26e7	inactive
Miro	DRSC15795	1.84e7	2.36e7		9.91e6	1.07e7	inactive
CG46385	DRSC06425	2.44e7	3.29e7		1.47e7	1.70e7	inactive
CG46385	DRSC06557	3.81e7	4.24e7		1.70e7	1.66e7	inactive
HBS1	DRSC08544	3.67e7	3.22e7		1.55e7	1.42e7	inactive
Septin5	DRSC06843	3.41e7	3.11e7		1.57e7	1.43e7	inactive
Pif2	DRSC12525	4.23e7	3.00e7		2.02e7	1.49e7	inactive
lwr	DRSC00828	2.74e7			1.76e7		inactive
bard	DRSC14796	3.89e7	3.92e7		5.73e7	1.69e7	inactive
CG4597	DRSC10432	3.10e7	5.10e7		1.48e7	2.25e7	inactive
CG14720	DRSC14942	4.28e7	3.89e7		1.97e7	2.02e7	inactive
CG31219	DRSC15140	4.10e7	4.85e7		5.72e7	2.13e7	inactive
Bro	DRSC08149	3.73e7	4.40e7		1.95e7	1.93e7	inactive
CG10562	DRSC14257	3.20e7	3.03e7		1.39e7	1.51e7	inactive
CG7222	DRSC07019	4.79e7	4.03e7		1.94e7	1.92e7	inactive
CG13837	DRSC14687	5.86e7	6.48e7		2.80e7	2.41e7	inactive
H2.0	DRSC03340	3.46e7	4.58e7		1.64e7	2.23e7	inactive
H2.0	DRSC22555	4.33e7	3.85e7		2.13e7	1.55e7	inactive
Roc1a	DRSC18483	3.31e7	2.42e7	1.7	1.93e7	1.55e7	active
CG7551	DRSC10876	2.55e7	4.36e7		1.39e7	1.92e7	inactive
axed	DRSC08833	2.85e7	5.03e7		1.51e7	2.23e7	inactive
axed	DRSC10982	3.02e7	4.79e7		1.41e7	2.03e7	inactive
loopin-1	DRSC06888	3.53e7	3.12e7		1.62e7	1.50e7	inactive
VhaM9.7-a	DRSC08289	3.17e7	2.81e7		1.73e7	1.45e7	inactive
pst	DRSC11003	4.57e7	4.05e7		2.67e7	1.61e7	inactive
CG5262	DRSC11773	3.91e7	4.74e7		1.80e7	3.34e7	inactive
ems	DRSC16941	3.72e7	4.56e7		1.92e7	7.82e7	inactive

In a second layout: 5 of the entries above
{"Target gene": "Pif2", "DRSC id": "DRSC12525", "calcium entry signal, replicate 1 (fluorescence units)": 4.23e7, "calcium entry signal, replicate 2 (fluorescence units)": 3.00e7, "resting calcium signal, replicate 1 (fluorescence units)": 2.02e7, "resting calcium signal, replicate 2 (fluorescence units)": 1.49e7, "call": "inactive"}
{"Target gene": "lwr", "DRSC id": "DRSC00828", "calcium entry signal, replicate 1 (fluorescence units)": 2.74e7, "resting calcium signal, replicate 1 (fluorescence units)": 1.76e7, "call": "inactive"}
{"Target gene": "bard", "DRSC id": "DRSC14796", "calcium entry signal, replicate 1 (fluorescence units)": 3.89e7, "calcium entry signal, replicate 2 (fluorescence units)": 3.92e7, "resting calcium signal, replicate 1 (fluorescence units)": 5.73e7, "resting calcium signal, replicate 2 (fluorescence units)": 1.69e7, "call": "inactive"}
{"Target gene": "CG4597", "DRSC id": "DRSC10432", "calcium entry signal, replicate 1 (fluorescence units)": 3.10e7, "calcium entry signal, replicate 2 (fluorescence units)": 5.10e7, "resting calcium signal, replicate 1 (fluorescence units)": 1.48e7, "resting calcium signal, replicate 2 (fluorescence units)": 2.25e7, "call": "inactive"}
{"Target gene": "CG14720", "DRSC id": "DRSC14942", "calcium entry signal, replicate 1 (fluorescence units)": 4.28e7, "calcium entry signal, replicate 2 (fluorescence units)": 3.89e7, "resting calcium signal, replicate 1 (fluorescence units)": 1.97e7, "resting calcium signal, replicate 2 (fluorescence units)": 2.02e7, "call": "inactive"}
